Assay results taken from the supplement of paper PMC10849652.
The other results are listed elsewhere or left out.

Protein sequences, listed by entry. Tags and fused reporters are not part of them. Lines headed by an entry give the natural chain unless they say otherwise; changes in a name come on top.
UniProt P62820, whole entry, looked up: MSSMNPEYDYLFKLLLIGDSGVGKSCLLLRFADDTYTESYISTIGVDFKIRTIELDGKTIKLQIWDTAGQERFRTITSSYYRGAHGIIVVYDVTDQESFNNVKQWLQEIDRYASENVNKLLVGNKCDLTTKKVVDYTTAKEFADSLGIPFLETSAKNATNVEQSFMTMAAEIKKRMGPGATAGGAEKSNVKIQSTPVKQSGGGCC
UniProt P61020: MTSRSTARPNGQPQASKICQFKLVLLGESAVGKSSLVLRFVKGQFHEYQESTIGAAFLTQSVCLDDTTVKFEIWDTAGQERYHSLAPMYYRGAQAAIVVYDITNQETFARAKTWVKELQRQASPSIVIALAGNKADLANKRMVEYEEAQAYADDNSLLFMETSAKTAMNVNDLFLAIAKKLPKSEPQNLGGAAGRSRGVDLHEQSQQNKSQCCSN
UniProt P62834: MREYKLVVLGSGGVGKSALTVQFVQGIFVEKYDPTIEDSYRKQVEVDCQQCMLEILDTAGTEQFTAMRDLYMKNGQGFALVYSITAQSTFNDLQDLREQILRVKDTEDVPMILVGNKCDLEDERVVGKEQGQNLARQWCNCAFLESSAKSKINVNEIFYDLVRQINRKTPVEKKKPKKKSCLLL
UniProt P61106, whole entry, looked up: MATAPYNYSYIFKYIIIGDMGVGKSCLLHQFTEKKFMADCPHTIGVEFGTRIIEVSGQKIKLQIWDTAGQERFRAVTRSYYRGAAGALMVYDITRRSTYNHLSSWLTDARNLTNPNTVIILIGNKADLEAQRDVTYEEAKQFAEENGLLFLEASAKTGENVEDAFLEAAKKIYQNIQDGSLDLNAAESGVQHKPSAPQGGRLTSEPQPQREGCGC
UniProt P54727: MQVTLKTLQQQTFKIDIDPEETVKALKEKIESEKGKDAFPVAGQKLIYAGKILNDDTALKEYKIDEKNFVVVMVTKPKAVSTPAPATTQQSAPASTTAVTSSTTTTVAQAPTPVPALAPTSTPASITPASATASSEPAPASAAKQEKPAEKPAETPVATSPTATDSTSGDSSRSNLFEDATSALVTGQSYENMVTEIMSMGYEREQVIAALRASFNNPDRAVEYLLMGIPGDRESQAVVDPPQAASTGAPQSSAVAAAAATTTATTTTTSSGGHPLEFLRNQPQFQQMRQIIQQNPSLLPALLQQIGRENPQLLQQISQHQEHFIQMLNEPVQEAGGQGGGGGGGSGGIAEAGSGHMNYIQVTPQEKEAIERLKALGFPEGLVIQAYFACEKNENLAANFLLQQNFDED
UniProt P47224: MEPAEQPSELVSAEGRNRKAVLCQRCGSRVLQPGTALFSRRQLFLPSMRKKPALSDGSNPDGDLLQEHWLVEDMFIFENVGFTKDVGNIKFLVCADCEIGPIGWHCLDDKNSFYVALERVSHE
UniProt P51149, whole entry, looked up: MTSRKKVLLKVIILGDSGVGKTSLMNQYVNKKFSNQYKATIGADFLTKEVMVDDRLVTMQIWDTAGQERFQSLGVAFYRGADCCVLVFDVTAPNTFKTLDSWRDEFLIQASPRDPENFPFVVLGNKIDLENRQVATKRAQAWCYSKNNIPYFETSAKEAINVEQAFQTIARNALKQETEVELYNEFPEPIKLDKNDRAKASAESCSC
UniProt Q9H0U4: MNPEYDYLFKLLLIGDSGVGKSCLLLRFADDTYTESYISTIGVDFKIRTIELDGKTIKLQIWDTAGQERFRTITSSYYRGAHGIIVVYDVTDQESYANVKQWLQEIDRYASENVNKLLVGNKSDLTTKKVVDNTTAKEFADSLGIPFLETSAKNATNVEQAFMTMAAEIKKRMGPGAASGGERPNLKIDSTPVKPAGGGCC
UniProt Q53S08: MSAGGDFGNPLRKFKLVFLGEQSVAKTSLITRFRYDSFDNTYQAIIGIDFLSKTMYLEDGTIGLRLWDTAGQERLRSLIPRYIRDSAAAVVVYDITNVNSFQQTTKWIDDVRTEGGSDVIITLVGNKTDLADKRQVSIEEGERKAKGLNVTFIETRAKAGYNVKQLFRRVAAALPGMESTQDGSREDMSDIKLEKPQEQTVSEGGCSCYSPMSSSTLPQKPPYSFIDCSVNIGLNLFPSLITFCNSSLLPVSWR
UniProt P43487, whole entry, looked up: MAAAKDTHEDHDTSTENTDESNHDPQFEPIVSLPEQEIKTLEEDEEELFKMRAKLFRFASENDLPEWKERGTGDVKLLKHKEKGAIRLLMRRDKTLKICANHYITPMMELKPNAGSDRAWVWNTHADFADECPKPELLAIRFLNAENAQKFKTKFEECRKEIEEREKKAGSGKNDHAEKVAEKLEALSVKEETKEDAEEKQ
UniProt P61006: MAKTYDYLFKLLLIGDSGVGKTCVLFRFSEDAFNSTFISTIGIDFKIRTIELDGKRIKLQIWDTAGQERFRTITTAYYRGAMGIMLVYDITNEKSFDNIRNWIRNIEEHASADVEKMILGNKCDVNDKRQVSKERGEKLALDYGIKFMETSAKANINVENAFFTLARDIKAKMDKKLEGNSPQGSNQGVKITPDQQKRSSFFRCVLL
UniProt O43251: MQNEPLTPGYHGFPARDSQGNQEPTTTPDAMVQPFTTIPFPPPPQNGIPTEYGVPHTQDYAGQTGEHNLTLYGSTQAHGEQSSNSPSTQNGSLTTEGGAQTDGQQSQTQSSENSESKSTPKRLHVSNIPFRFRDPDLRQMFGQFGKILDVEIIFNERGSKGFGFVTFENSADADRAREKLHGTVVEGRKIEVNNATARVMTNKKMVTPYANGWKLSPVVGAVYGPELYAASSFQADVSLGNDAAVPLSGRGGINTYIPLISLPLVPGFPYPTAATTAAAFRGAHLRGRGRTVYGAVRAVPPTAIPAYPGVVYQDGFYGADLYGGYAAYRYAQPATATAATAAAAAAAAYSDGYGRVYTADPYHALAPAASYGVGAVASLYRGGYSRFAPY
UniProt Q6GYQ0: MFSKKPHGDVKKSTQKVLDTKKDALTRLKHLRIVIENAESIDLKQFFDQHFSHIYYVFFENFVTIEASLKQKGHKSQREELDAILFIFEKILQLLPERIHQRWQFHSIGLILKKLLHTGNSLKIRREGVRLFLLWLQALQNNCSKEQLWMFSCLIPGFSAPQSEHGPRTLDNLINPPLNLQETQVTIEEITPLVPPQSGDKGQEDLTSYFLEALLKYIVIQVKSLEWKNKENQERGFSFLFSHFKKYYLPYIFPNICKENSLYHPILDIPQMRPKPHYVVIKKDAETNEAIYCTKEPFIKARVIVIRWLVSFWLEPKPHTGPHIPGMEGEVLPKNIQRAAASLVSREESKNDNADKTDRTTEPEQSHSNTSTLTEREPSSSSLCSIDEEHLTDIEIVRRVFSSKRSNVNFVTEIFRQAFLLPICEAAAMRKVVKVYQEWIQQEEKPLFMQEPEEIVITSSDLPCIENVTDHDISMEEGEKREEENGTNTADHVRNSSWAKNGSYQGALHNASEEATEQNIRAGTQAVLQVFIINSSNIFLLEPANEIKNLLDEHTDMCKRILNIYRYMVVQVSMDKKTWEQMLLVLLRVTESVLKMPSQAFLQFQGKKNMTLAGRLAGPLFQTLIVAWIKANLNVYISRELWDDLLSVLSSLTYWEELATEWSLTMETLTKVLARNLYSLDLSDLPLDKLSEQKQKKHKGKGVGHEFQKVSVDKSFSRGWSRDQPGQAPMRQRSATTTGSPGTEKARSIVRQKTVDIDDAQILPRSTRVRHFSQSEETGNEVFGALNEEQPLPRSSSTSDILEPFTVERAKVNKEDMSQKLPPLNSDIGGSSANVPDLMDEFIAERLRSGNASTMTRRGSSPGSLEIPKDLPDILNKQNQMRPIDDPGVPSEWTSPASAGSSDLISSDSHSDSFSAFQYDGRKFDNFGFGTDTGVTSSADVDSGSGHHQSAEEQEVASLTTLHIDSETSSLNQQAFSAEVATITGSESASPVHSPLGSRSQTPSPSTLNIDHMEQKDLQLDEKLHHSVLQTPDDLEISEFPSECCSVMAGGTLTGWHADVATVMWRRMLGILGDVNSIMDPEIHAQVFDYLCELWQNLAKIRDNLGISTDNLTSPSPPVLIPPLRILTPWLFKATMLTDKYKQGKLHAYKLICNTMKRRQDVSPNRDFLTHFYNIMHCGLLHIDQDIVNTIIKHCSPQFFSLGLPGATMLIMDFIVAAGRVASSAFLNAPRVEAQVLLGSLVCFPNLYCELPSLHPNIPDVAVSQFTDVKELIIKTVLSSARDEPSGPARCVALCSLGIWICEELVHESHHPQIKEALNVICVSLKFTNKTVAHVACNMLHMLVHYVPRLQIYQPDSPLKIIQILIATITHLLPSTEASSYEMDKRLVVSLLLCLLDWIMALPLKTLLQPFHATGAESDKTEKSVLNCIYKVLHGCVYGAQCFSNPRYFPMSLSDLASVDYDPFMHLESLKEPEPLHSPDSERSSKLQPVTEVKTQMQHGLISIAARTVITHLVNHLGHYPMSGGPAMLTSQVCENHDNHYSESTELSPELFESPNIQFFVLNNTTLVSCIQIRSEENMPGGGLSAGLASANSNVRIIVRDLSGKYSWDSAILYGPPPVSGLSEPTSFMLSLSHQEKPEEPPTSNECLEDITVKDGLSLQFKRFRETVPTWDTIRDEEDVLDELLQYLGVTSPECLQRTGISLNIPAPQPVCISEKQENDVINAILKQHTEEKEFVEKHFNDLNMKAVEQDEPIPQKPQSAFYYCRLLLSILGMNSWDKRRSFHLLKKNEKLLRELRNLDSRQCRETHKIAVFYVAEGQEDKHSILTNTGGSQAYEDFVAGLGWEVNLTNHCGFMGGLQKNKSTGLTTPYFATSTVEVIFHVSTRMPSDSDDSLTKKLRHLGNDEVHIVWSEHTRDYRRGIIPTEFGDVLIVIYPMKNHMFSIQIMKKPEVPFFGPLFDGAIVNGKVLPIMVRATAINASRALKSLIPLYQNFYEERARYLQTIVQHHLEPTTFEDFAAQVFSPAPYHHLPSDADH
UniProt Q09028, whole entry, looked up: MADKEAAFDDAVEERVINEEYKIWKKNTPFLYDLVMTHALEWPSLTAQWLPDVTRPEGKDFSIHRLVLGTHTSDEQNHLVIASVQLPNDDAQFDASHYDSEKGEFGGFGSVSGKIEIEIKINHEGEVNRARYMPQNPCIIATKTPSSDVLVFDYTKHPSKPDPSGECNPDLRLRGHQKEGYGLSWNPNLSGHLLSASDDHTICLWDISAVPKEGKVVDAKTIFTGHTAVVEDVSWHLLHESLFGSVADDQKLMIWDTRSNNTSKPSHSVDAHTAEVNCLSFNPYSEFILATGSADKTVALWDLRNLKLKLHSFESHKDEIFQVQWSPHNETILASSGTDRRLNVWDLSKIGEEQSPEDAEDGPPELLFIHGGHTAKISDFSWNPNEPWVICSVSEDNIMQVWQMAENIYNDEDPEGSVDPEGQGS
UniProt Q15291, whole entry, looked up: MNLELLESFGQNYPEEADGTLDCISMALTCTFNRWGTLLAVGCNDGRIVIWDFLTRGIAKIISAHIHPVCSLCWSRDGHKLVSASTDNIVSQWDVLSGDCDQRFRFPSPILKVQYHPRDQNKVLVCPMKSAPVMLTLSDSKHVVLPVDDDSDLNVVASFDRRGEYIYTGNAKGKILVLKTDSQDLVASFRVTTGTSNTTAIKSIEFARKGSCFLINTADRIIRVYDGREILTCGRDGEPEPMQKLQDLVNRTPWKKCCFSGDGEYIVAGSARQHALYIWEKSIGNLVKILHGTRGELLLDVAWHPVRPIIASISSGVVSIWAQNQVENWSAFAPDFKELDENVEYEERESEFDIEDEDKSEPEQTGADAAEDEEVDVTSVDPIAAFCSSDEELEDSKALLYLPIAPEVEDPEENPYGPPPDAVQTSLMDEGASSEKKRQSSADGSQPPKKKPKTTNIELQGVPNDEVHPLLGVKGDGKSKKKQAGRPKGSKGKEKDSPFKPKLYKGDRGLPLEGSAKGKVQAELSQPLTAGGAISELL
UniProt Q9NX57: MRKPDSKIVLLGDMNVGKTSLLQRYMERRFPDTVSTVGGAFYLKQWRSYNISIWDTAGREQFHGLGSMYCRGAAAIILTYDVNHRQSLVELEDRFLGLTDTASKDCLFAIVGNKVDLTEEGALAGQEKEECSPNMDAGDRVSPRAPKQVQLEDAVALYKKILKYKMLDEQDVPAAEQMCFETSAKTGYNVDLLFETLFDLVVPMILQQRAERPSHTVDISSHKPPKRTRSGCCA
UniProt Q96QF0: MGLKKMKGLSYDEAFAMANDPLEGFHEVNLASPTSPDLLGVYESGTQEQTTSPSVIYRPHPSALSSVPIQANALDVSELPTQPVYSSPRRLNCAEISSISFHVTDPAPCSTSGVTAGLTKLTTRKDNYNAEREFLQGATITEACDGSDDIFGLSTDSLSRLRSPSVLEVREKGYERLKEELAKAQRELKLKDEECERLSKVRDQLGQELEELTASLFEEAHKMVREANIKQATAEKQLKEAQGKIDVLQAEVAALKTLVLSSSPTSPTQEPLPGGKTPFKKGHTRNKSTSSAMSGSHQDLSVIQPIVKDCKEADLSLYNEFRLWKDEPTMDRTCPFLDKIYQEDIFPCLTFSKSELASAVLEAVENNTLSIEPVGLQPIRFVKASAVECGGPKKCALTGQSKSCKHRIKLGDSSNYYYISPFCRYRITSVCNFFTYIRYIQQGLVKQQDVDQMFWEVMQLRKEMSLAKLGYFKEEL

Assays:
Test in all cases: log2 fold change, soluble protein after heating vs DMSO (PISA); higher = thermal stabilisation; K562 cells, 10 uM, 30 min; active = over 0.2 and 3.5 SD of the protein, either way, in both replicates (recomputed)
saracatinib = compound: CN1CCN(CCOc2cc(OC3CCOCC3)c3c(Nc4c(Cl)ccc5c4OCO5)ncnc3c2)CC1 [saracatinib]
Outline: (§1)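 K562 cells at 2×10^6 cells/mL were treated for 30 min with 10 μM compound, and aliquots were heated for 3 min over 48°C-58°C before pooling. Extraction used PBS with 0.5% NP-40 at 4°C, and soluble protein was the supernatant after 21,000xg for 90 min, measured by TMTpro 16plex LC-MS/MS with channel sums equalised. Thermal stability values, relative to control samples and from duplicates, are log2 fold changes.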

sotrastaurin = compound: CN1CCN(c2nc(C3=C(c4c[nH]c5ccccc45)C(=O)NC3=O)c3ccccc3n2)CC1 [sotrastaurin]
Outline: as §1

alvocidib = compound: CN1CC[C@H](c2c(O)cc(O)c3c(=O)cc(-c4ccccc4Cl)oc23)[C@H](O)C1 [alvocidib]
Outline: as §1

Tubastatin A = compound: CN1CCc2c(c3ccccc3n2Cc2ccc(C(=O)NO)cc2)C1 [Tubastatin A]
Outline: as §1

[1] = compound: CNC(=O)C1=CC=CC=C1NC2=NC(=NC=C2Cl)NC3=C(C=C(C=C3)N4CCOCC4)OC
Outline: as §1

defactinib = compound: CNC(=O)c1ccc(Nc2ncc(C(F)(F)F)c(NCc3nccnc3N(C)S(C)(=O)=O)n2)cc1 [defactinib]
Outline: as §1

rucaparib = compound: CNCc1ccc(-c2[nH]c3cc(F)cc4c3c2CCNC4=O)cc1 [rucaparib]
Outline: as §1

[2] = compound: CNc1nc(-c2ccc3c(N)n[nH]c3c2)cc(N2C[C@@H](C(=O)NC3CCCCC3)CC[C@H]2C)n1
Outline: as §1

encorafenib = compound: COC(=O)N[C@@H](C)CNc1nccc(-c2cn(C(C)C)nc2-c2cc(Cl)cc(NS(C)(=O)=O)c2F)n1 [encorafenib]
Outline: as §1

[3] = compound: COC(=O)[C@H](CCSC)NC(=O)C1=C(C=C(C=C1)NC[C@H](CS)N)C2=CC=CC=C2
Outline: as §1

| Target | log2 fold change (saracatinib) | log2 fold change (sotrastaurin) | log2 fold change (alvocidib) | log2 fold change (Tubastatin A) | log2 fold change [1] | log2 fold change (defactinib) | log2 fold change (rucaparib) | log2 fold change [2] | log2 fold change (encorafenib) | log2 fold change [3] |
| --- | --- | --- | --- | --- | --- | --- | --- | --- | --- | --- |
| RAB1A (UniProt P62820) | inactive: 0.045 | inactive: 0.032 | inactive: 0.01 | inactive: -0.028 | inactive: -0.017 | inactive: 0 | inactive: -0.061 | inactive: -0.035 | inactive: -0.021 | inactive: 0.02 |
| RAB5B (UniProt P61020) | inactive: 0.072 | inactive: 0.025 | inactive: -0.007 | inactive: 0.027 | inactive: -0.087 | inactive: -0.03 | inactive: -0.037 | inactive: -0.003 | inactive: -0.049 | inactive: -0.1 |
| RAB43 (UniProt Q86YS6) | inactive: 0.124 | inactive: -0.048 | inactive: 0.016 | inactive: -0.076 | inactive: -0.015 | inactive: -0.201 | inactive: 0.086 | inactive: -0.022 | inactive: -0.152 | inactive: -0.112 |
| RAP1A (UniProt P62834) | inactive: 0.037 | inactive: 0.061 | inactive: -0.037 | inactive: 0.007 | inactive: 0.025 | inactive: -0.017 | inactive: -0.068 | inactive: 0.003 | inactive: -0.02 | inactive: -0.028 |
| RAB14 (UniProt P61106) | inactive: 0.049 | inactive: 0.045 | inactive: -0.004 | inactive: -0.02 | inactive: -0.02 | inactive: -0.006 | inactive: -0.027 | inactive: -0.026 | inactive: -0.009 | inactive: -0.018 |
| RAP1B (UniProt F5GZG1) | inactive: 0.029 | inactive: 0.031 | inactive: -0.124 | inactive: -0.138 | inactive: -0.003 | inactive: -0.025 | inactive: -0.029 | inactive: -0.023 | inactive: -0.005 | inactive: -0.169 |
| RAD23B (UniProt P54727) | inactive: -0.007 | inactive: 0.016 | inactive: 0.041 | inactive: -0.017 | inactive: -0.032 | inactive: 0.001 | inactive: -0.057 | inactive: -0.038 | inactive: -0.022 | inactive: 0.033 |
| RACK1 (UniProt D6RF23) | inactive: -0.125 | inactive: -0.029 | inactive: 0.223 | inactive: -0.05 | inactive: -0.081 | inactive: 0.111 | inactive: -0.15 | inactive: -0.177 | inactive: 0.095 | inactive: -0.044 |
| RAB12, A0A3B3ITT1 | inactive: 0.047 | inactive: 0.104 | inactive: -0.058 | inactive: -0.025 | inactive: -0.092 | inactive: -0.007 | inactive: 0 | inactive: 0.009 | inactive: 0.001 | inactive: 0.015 |
| RABIF (UniProt P47224) | inactive: 0.058 | inactive: -0.015 | inactive: -0.056 | inactive: -0.049 | inactive: 0.045 | inactive: 0.044 | inactive: 0.093 | inactive: -0.001 | inactive: -0.069 | inactive: -0.017 |
| RABEP1 (UniProt Q15276) | inactive: 0.052 | inactive: 0.019 | inactive: -0.045 | inactive: 0.023 | inactive: -0.002 | inactive: -0.072 | inactive: -0.007 | inactive: 0.025 | inactive: 0.032 | inactive: -0.013 |
| RAB7A (UniProt P51149) | inactive: 0.072 | inactive: 0.038 | inactive: 0.002 | inactive: -0.024 | inactive: 0.083 | inactive: 0.01 | inactive: -0.021 | inactive: -0.006 | inactive: -0.037 | inactive: 0.037 |
| RAB1B (UniProt Q9H0U4) | inactive: 0.043 | inactive: 0.018 | inactive: 0.05 | inactive: -0.031 | inactive: -0.006 | inactive: 0.002 | inactive: -0.143 | inactive: -0.064 | inactive: 0.008 | inactive: 0.012 |
| RB1 (UniProt P06400) | inactive: 0.026 | inactive: -0.038 | active: -0.885 | inactive: 0.061 | inactive: 0.026 | inactive: -0.176 | inactive: -0.195 | inactive: 0.016 | inactive: 0.006 | inactive: 0.019 |
| RBM10 isoform 5 (UniProt P98175) | inactive: -0.045 | inactive: 0.014 | inactive: 0.03 | inactive: 0.081 | inactive: -0.046 | inactive: 0.032 | inactive: 0.135 | inactive: -0.063 | inactive: 0.055 | inactive: -0.026 |
| RAP1B (UniProt P61224) | inactive: 0.039 | inactive: 0.059 | inactive: -0.012 | inactive: 0.017 | inactive: 0.151 | inactive: -0.024 | inactive: -0.017 | inactive: 0.006 | inactive: -0.02 | inactive: 0.011 |
| RAB6D (UniProt Q53S08) | inactive: -0.012 | inactive: 0.066 | inactive: 0.065 | inactive: 0.121 | inactive: -0.034 | inactive: -0.034 | inactive: -0.074 | inactive: -0.061 | inactive: 0.054 | inactive: -0.001 |
| RANBP1 (UniProt P43487) | inactive: 0.024 | inactive: 0.01 | inactive: -0.066 | inactive: 0.004 | inactive: 0.022 | inactive: 0.005 | inactive: -0.064 | inactive: -0.011 | inactive: 0.054 | inactive: 0.001 |
| RAB8A (UniProt P61006) | inactive: 0.006 | inactive: 0.011 | inactive: 0 | inactive: -0.018 | inactive: -0.046 | inactive: -0.02 | inactive: 0.044 | inactive: -0.014 | inactive: -0.072 | inactive: -0.016 |
| RBFOX2 isoform 8 (UniProt O43251) | inactive: 0.07 | inactive: -0.248 | inactive: 0.012 | inactive: -0.011 | inactive: -0.098 | inactive: -0.024 | inactive: 0.04 | inactive: 0.015 | inactive: 0.009 | inactive: 0.018 |
| RALGAPA1 isoform 6 (UniProt Q6GYQ0) | inactive: -0.052 | inactive: 0.036 | inactive: -0.208 | inactive: -0.07 | inactive: 0.015 | inactive: -0.01 | inactive: 0.174 | inactive: 0.044 | inactive: 0.165 | inactive: 0.043 |
| RBBP4 (UniProt Q09028) | inactive: -0.063 | inactive: 0.051 | inactive: 0.033 | inactive: 0.013 | inactive: -0.035 | inactive: 0.015 | inactive: -0.029 | inactive: -0.056 | inactive: 0.024 | inactive: -0.01 |
| RBBP5 (UniProt Q15291) | inactive: 0.035 | inactive: 0 | inactive: 0.014 | inactive: 0.006 | inactive: -0.025 | inactive: -0.01 | inactive: -0.028 | inactive: -0.1 | inactive: 0.008 | inactive: 0.042 |
| RAB18 (UniProt Q9NP72) | inactive: 0.132 | inactive: 0.045 | inactive: -0.014 | inactive: -0.078 | inactive: -0.002 | inactive: 0.033 | inactive: -0.034 | inactive: 0.013 | inactive: -0.012 | inactive: 0.012 |
| RAB20 (UniProt Q9NX57) | inactive: 0.095 | inactive: 0.144 | inactive: -0.004 | inactive: -0.027 | inactive: 0.04 | inactive: -0.005 | inactive: 0.035 | inactive: -0.003 | inactive: -0.028 | inactive: 0.056 |
| RAB3IP (UniProt Q96QF0) | inactive: -0.017 | inactive: 0.006 | inactive: -0.133 | inactive: -0.036 | inactive: 0.009 | inactive: 0.132 | inactive: -0.032 | inactive: 0.013 | inactive: -0.006 | inactive: 0.071 |
| RANGAP1 (UniProt P46060) | inactive: -0.016 | inactive: -0.101 | inactive: -0.042 | inactive: -0.002 | inactive: 0.011 | inactive: -0.069 | inactive: 0.064 | inactive: -0.003 | inactive: 0.112 | inactive: -0.031 |
| RAB6A isoform 2 (UniProt P20340) | inactive: 0.026 | inactive: 0.043 | inactive: 0.007 | inactive: -0.034 | inactive: -0.003 | inactive: -0.015 | inactive: 0.059 | inactive: -0.038 | inactive: -0.108 | inactive: -0.004 |
| RAB23 (UniProt Q9ULC3) | inactive: 0.011 | inactive: 0.05 | inactive: -0.009 | inactive: -0.084 | inactive: -0.055 | inactive: -0.015 | inactive: -0.008 | inactive: 0.027 | inactive: -0.007 | inactive: 0 |

Single values from above:
RAD23B (UniProt P54727) | log2 fold change [1]: inactive: -0.032
RAB14 (UniProt P61106) | log2 fold change (saracatinib): inactive: 0.049

Complete entries from above. Order of values: log2 fold change (saracatinib)	log2 fold change (sotrastaurin)	log2 fold change (alvocidib)	log2 fold change (Tubastatin A)	log2 fold change [1]	log2 fold change (defactinib)	log2 fold change (rucaparib)	log2 fold change [2]	log2 fold change (encorafenib)	log2 fold change [3]
RACK1 (UniProt D6RF23) as listed: inactive: -0.125	inactive: -0.029	inactive: 0.223	inactive: -0.05	inactive: -0.081	inactive: 0.111	inactive: -0.15	inactive: -0.177	inactive: 0.095	inactive: -0.044
RAB5B (UniProt P61020) as listed: inactive: 0.072	inactive: 0.025	inactive: -0.007	inactive: 0.027	inactive: -0.087	inactive: -0.03	inactive: -0.037	inactive: -0.003	inactive: -0.049	inactive: -0.1
